Experimental data: PubChem BioAssay AID1259405 (NCATS, 2018)
Shown is a random part of about 50,000 reagents tested. In the full data, about 4,000 (8%) were called active. 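Mouse siRNA library applied to hamster cells; one well for each siRNA.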

- Assay: 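Silenced genes that increase secreted GFP made by CHO cells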 (primary screen)
- System: Chinese hamster CHO-K1 ovary cells with stable secreted eGFP expression
- Knock-down reagent: single siRNA against mouse genes, 0.8 pmol siRNA per well (2 µl of 400 nM stock)
- Duration: 3 days
- Read-out: 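Per-well intracellular GFP measured by laser scanning cytometry, plus viability from ATP luminescence, each relative to plate median of non-targeting control wells, in %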
- Direction: GFP, % of control: higher = more GFP per well, higher productivity; viability (ATP), % of control: higher = more viable cells (more ATP)
- Hit rule: 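Called active when intracellular GFP, relative to negative control, is at or above 120%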

Target gene | PubChem SID | GFP, % of control | viability (ATP), % of control | activity call
Efhb | SID363542563 | 57.6 | 75.8 | inactive
Efhb | SID363552054 | 70.2 | 48.4 | inactive
Efhb | SID363559659 | 69.3 | 80.8 | inactive
Pcdhb13 | SID363573277 | 69.2 | 82.7 | inactive
Pcdhb13 | SID363588516 | 87.4 | 69 | inactive
Svs3a | SID363556216 | 139 | 74.9 | active
Svs3a | SID363586666 | 96.1 | 74.4 | inactive
Svs3a | SID363588774 | 114 | 103 | inactive
Pira1 | SID363568622 | 114 | 103 | inactive
Pira1 | SID363576014 | 78.9 | 59.3 | inactive
Pira1 | SID363578830 | 48.2 | 69.5 | inactive
Il18 | SID363541531 | 74.1 | 50.9 | inactive
Il18 | SID363556158 | 62.1 | 55.8 | inactive
Il18 | SID363566447 | 79.2 | 73.2 | inactive
Srsf1 | SID363569277 | 89.4 | 125 | inactive
Srsf1 | SID363583709 | 87.3 | 108 | inactive
Stk25 | SID363570873 | 122 | 84.6 | active
S100a10 | SID363582434 | 90.1 | 114 | inactive
S100a10 | SID363584194 | 69.4 | 71 | inactive
Zc3h18 | SID363552308 | 114 | 69.5 | inactive
Zc3h18 | SID363585444 | 49.8 | 87.9 | inactive
Zc3h18 | SID363585795 | 122 | 113 | active

Copied from the list:
For “viability (ATP), % of control”, Zc3h18 [SID363552308] has 69.5
Pira1 [SID363576014], viability (ATP), % of control: 59.3
Zc3h18 [SID363585444], activity call: inactive
For “GFP, % of control”, Il18 [SID363566447] reads 79.2
Result of Pira1 [SID363578830] under “viability (ATP), % of control”: 69.5
For “activity call”, Efhb [SID363542563] has inactive

Continued:
Target gene | PubChem SID | GFP, % of control | viability (ATP), % of control | activity call
Krt17 | SID363572282 | 42.7 | 69.8 | inactive
Krt17 | SID363574042 | 85.1 | 93.8 | inactive
Rcc1l | SID363546107 | 68.1 | 106 | inactive
Rcc1l | SID363549620 | 66.3 | 83.7 | inactive
Rcc1l | SID363563426 | 55.3 | 51.9 | inactive
Cacfd1 | SID363552400 | 66.3 | 80.4 | inactive
Cacfd1 | SID363585536 | 60.6 | 66 | inactive
Cacfd1 | SID363585887 | 86.6 | 110 | inactive
Klk1b16 | SID363547393 | 95.4 | 105 | inactive
Klk1b16 | SID363558162 | 34.7 | 28.1 | inactive
Klk1b16 | SID363559920 | 87 | 65.5 | inactive
Azi2 | SID363546655 | 82.3 | 75.8 | inactive
Azi2 | SID363548411 | 68 | 70 | inactive
Azi2 | SID363560589 | 76.8 | 39.5 | inactive
Aldh3b3 | SID363547850 | 67.4 | 66.7 | inactive
Aldh3b3 | SID363558619 | 99.5 | 57.6 | inactive
Aldh3b3 | SID363560377 | 92.6 | 94.3 | inactive
Dusp7 | SID363573255 | 78.3 | 72.8 | inactive
Dusp7 | SID363588494 | 65.1 | 48.6 | inactive
Tas2r130 | SID363556550 | 87.7 | 92.4 | inactive
Tas2r130 | SID363587000 | 63.1 | 56.4 | inactive
Tas2r130 | SID363589108 | 45.3 | 58.3 | inactive
Btn2a2 | SID363581637 | 47.8 | 93 | inactive
Btn2a2 | SID363589131 | 90.7 | 99.2 | inactive
Smim3 | SID363543504 | 78.1 | 54.6 | inactive
Smim3 | SID363552997 | 127 | 107 | active
Smim3 | SID363558845 | 82.4 | 92.2 | inactive
Zfp653 | SID363545943 | 68.1 | 60.3 | inactive
Zfp653 | SID363549456 | 77 | 73.5 | inactive
Zfp653 | SID363563262 | 62.3 | 49.1 | inactive
Slc25a33 | SID363570275 | 152 | 133 | active
Slc25a33 | SID363576611 | 86.9 | 103 | inactive
Slc25a33 | SID363579779 | 75.2 | 88.4 | inactive
Sfrp5 | SID363541789 | 56.2 | 65.8 | inactive
Sfrp5 | SID363553381 | 58.3 | 47.5 | inactive
Sfrp5 | SID363566705 | 89.5 | 92.3 | inactive
